Assay [1] deals with T1, biotinylated G3BP1 190-208 CPP (rat) (UniProt D3ZYS7).
T1 sequence (peptide, biotin (position not stated)): VVEPEPEPEPEPEPEPVSD
The assay can be described thus: pull-down + cross-linking; recombinant human G3BP1 mixed with equimolar biotinylated CPP in 1x PBS, 10 min at 37 °C; 1% formaldehyde 15 min at RT, quenched with 125 mM glycine; M-280 streptavidin Dynabeads, 4 °C, 3 h; washed with RIPA + SDS; immunoblot for G3BP1; both purified. For orientation: Immunoblotting shows a protein as a band on a membrane.

In assay [2] the target is T1, biotinylated G3BP1 190-208 CPP (rat). The assay can be described thus: pull-down; 30 µg biotinylated CPP in 10 µL PBS injected into rat sciatic nerve; nerves harvested 16 h later, lysed in RIPA + 0.01% Rapigest; approx. 500 µg protein on M-280 streptavidin Dynabeads, 4 °C, 3 h; three washes; immunoblot for G3BP1 or G3BP2; only the target purified.

Results are given in words; binding and its absence hold for the method and conditions named. For part of these data: In cells and extracts the contact can be indirect.

Regarding “recombinant human G3BP1 (OriGene) (from UniProt Q13283 1-466)”, in assay [1], the binding entry is recorded as “no binding”.

On to “G3BP1 (endogenous, rat sciatic nerve) (from UniProt D3ZYS7 1-465)”, for which the binding entry in assay [2] was “no binding”.

B1: G3BP2 (endogenous, rat sciatic nerve) (protein, UniProt Q6AY21 1-449)
chain: MVMEKPSPLLVGREFVRQYYTLLNKAPEYLHRFYGRNSSYVHGGVDASGKPQEAVYGQNDIHHKVLSLNFSECHTKIRHVDAHATLSDGVVVQVMGLLSNSGQPERKFMQTFVLAPEGSVPNKFYVHNDMFRYEDEVFGDSEPELDEESEDEVEEEQEDRQPSPEPVQENANSAYYEAHPVTNGIEEPLEESSHEPEPEPESETKTEELKPQAEEKHLEELEEKSATPPPTEPASLPQEPPKPRVDAKPEVQSQPPRVREQRPRERPGFPPRGPRPGRGDTEQNDSDNRRIIRYPDSHQLFVGNLPHDIDENELKEFFMSFGNVVELRINTKGVGGKLPNFGFVVFDDSEPVQRILIAKPIMFRGEVRLNVEEKKTRAARERETRGGGDDRRDIRRNDRGPGGPRGIVGGGMMRDRDGRGPPPRGGMTQKLGSGRGTGQMEGRFTGQRR
Consider B1, for which, in assay [2], the binding result is “no binding”.

(Values after paper PMC11892601.)
